Source: patent US20080096990A1, “Flame Retardant Polystyrene Foam Compositions” (priority 2004, published 2008)

Assay: LOI test of compression molded polystyrene/flame retardant blends, ASTM D 2863-87
Details: in GPPS
[1] = Wt % Loading 4.5%, Wt % Br 2.25%, no stabilizer

Structure (SMILES)	LOI [1]	LOI (Wt % Loading 4.6%, Wt % Br 2.3%, 0.1% hydrotalcite stabilizer)
CN1C(=O)C2CC(Br)C(Br)CC2C1=O (stereo not drawn) [III]	24.3	25.2
O=C1NC(=O)C2CC(Br)C(Br)CC12 (stereo not drawn) [II]	25.0	–
